# Measurements taken from PubChem BioAssay AID590 (National Center for Advancing Translational Sciences (NCATS), 2007).
# Hit rate of the full screen: of about 59,000 compounds, about 6,500 (11%) were called active. Inconclusive means that the source gave no clear call. Such entries were picked first, then a sample of the others. No stated cut-off is given here; in the data, active means max dye-equivalent concentration above about 10 nM; inconclusive means mostly about 1.1 nM to 9.6 nM; inactive means weaker than that.
# Test: qHTS Assay for Spectroscopic Profiling in A350 Spectral Region
# Conditions: Compound autofluorescence, 340/450 nm, Alexa 350 dye-equivalents; stronger effect = higher value
row,SMILES,max dye-equivalent concentration
1,CC1=c2c(oc3cc(O)c(Nc4c(C)cc(O)cc4O)c(C)c23)=CC(=O)C1=Nc1c(C)cc(O)cc1O,inconclusive: 3.2 nM
2,O=C(c1cccc(S(=O)(=O)NCCOc2ccccc2)c1)N1CCN(c2ncccn2)CC1,inactive
3,O=C(Nc1c(C(=O)O)[nH]c2ccccc12)NC1CCCCC1,inconclusive: 8.4 nM
4,Cc1ccsc1C(=O)OCC(=O)c1cc(C)n(CC2CCCO2)c1C (stereo not given),inactive
5,CCCCn1c(-c2ccccc2)nnc1-c1ccccc1,active: 49 nM
6,CCOC(=O)C(NC(C)=O)(N1CCc2ccccc2C1)C(F)(F)F (stereo not given),inconclusive: 5.1 nM
7,CS(=O)(=O)N1CCC2(CCN(Cc3ccc(C#N)cc3)CC2)CC1,inactive
8,COc1cccc(NC(=O)c2ccc(CN3CCOCC3)cc2)c1,inconclusive: 1.2 nM
9,CC1CN(C(=O)CSc2nnc(-c3ccncc3)n2-c2ccccc2)CC(C)O1 (stereo not given),inconclusive: 1.7 nM
10,COc1ccc2cc(CN(Cc3ccco3)Cc3nnnn3C3CCCCC3)c(=O)[nH]c2c1,inactive
11,O=C(c1ccco1)N(Cc1cc2ccccc2[nH]c1=O)C1CCCCC1,inconclusive: 9.1 nM
12,CCC(=O)Nc1ccc(NC(=O)c2ccco2)c(OC)c1,inactive
13,CCNC(=O)Nc1cc2nc(C)n(Cc3ccc(Br)cc3)c2nc1C,inconclusive: 1.1 nM
14,CC(C)(C)c1ccc(C(=O)NCCC(=O)NCc2ccco2)cc1,inconclusive: 1.5 nM
15,Cc1ccc(NC(=O)CSCC(=O)O)c(C)c1,inconclusive: 1.5 nM
16,Cn1c(N)c(C(=O)CSc2ccc3c(c2)OCCO3)c(=O)n(C)c1=O,inactive
17,Cc1cc2cc(CN(CCCN3CCOCC3)C(=O)NC3CCCCC3)c(=O)[nH]c2cc1C,inconclusive: 3.6 nM
18,Cc1c(NS(=O)(=O)c2ccc3[nH]c(=O)[nH]c3c2)c(=O)n(-c2ccccc2)n1C,inconclusive: 9.5 nM
19,Cc1cccc(OCCCC(=O)O)c1,inconclusive: 2.5 nM
20,COc1ccc(NC(=O)N2CCCC2C(=O)Nc2ccc(C)c(Cl)c2)cc1 (stereo not given),inconclusive: 1.3 nM
21,COc1ccc(-c2nnnn2-c2ccccc2OC)cc1,inconclusive: 2.6 nM
22,COc1ccc(C2/C(=C(/O)c3ccc(OC(C)C)cc3)C(=O)C(=O)N2CCCN2CCOCC2)cc1 (stereo not given),inconclusive: 4.1 nM
23,Cc1cc(NCCN2CCOCC2)n2ncc(-c3ccccc3)c2n1,inconclusive: 9.3 nM

# Rewritten as tab-separated lines: entries from further up
row	SMILES	max dye-equivalent concentration
4	Cc1ccsc1C(=O)OCC(=O)c1cc(C)n(CC2CCCO2)c1C (stereo not given)	inactive
12	CCC(=O)Nc1ccc(NC(=O)c2ccco2)c(OC)c1	inactive

# Carrying on:

row,SMILES,max dye-equivalent concentration
1,COCCn1c(=O)[nH]c2cc(C(=O)NCCN3CCN(c4ccccc4F)CC3)ccc2c1=O,active: 25 nM
2,O=C(CSc1nnnn1-c1cccc2ccccc12)N1CCOCC1,inactive
3,COC(=O)Nc1nc2ccc(Sc3ccccc3)cc2[nH]1,inconclusive: 8.1 nM
4,C[C@@H](NC(=O)C1(N)CCCC1)C(=O)O,inactive
5,CCn1c(CNc2ccc(Cl)cc2)nnc1SCC(=O)NCc1ccccc1,inactive
6,CC1(C)CC(=O)C2=C(C1)OC(N)=C(C#N)C21C(=O)N2CCCc3cccc1c32 (stereo not given),inactive
7,Cc1c2c(nc3nc4ccccc4n13)CCCC2=O,inconclusive: 3.7 nM
8,CCOC(=O)C(C)n1nc(C)c2sc3ccccc3c2c1=O (stereo not given),inconclusive: 3 nM
9,Cc1ccc(C)c(N2CCN(C(=O)CN3C(=O)c4ccccc4C3=O)CC2)c1,inactive
10,CCN(CC)c1nc(N2CCOCC2)c(C#N)c2c1CN(C)CC2,inconclusive: 3.8 nM
11,CCOC(=O)[C@]1(CC(=O)O)CCCC1=O,inactive
12,COc1cccc(C2/C(=C(/O)c3ccncc3)C(=O)C(=O)N2CCCN(C)C)c1 (stereo not given),inactive
13,CN1CCN(c2nc3ccccc3nc2C(C#N)C(=O)OC2CCCCC2)CC1 (stereo not given),inconclusive: 4.3 nM
14,COC(=O)c1ccc(NC(=O)CCn2c(=O)oc3ccccc32)cc1,inactive
15,CN(C(=O)c1cccc(N2C(=O)C3CC=CCC3C2=O)c1)C1CCCCC1 (stereo not given),inactive
16,O=C(CSc1nc2ccc([N+](=O)[O-])cc2s1)c1ccc2ccccc2c1,inactive
17,COC(=O)/C=c1\sc2ncnn2c1=O,inconclusive: 2.2 nM
18,COC(=O)c1ccccc1NC(=O)N1CCN(C(=O)c2ccco2)CC1,inconclusive: 1.6 nM
19,CCOC(=O)C1CCN(C(=O)c2oc3ccc(S(=O)(=O)N4CC(C)CC(C)C4)cc3c2C)CC1 (stereo not given),inactive
20,COc1ccc(C(CNC(=O)c2cc(=O)[nH]c3ccccc23)N2CCCC2)cc1 (stereo not given),active: 16 nM
21,O=C1c2oc3ccccc3c(=O)c2C(c2ccc(Cl)cc2)N1c1ncccn1 (stereo not given),inactive
22,CCC(Sc1nc2n[nH]c(C)c2c(=N)n1-c1ccc(C)c(Cl)c1)C(=O)N1CCOCC1 (stereo not given),inactive
23,CCc1ccc2[nH]c(=O)c(CN(CCN(CC)CC)C(=O)NC3CCCCC3)cc2c1,inconclusive: 6 nM

row,SMILES,max dye-equivalent concentration
1,O=C(NC1CCCCC1)C1CCN(c2cnccn2)CC1,active: 17 nM
2,CCOC(=O)N1CCN(S(=O)(=O)c2cc3c(cc2C)NC(=O)CO3)CC1,inconclusive: 1.8 nM
3,O=C(O)CC[C@@]1(c2ccccc2)NC(=O)NC1=O,inactive
4,O=c1c(-c2ccc(Cl)cc2)nc2cncnc2n1Cc1ccc(F)cc1,inconclusive: 1.3 nM
5,O=c1cc(-c2ccc(O)cc2O)oc2ccccc12,inconclusive: 1.8 nM
6,Cc1cnc(C(=O)Nc2cccc3cccnc23)cn1,active: 310 nM
7,O=C(NC1CCCC1)C1CCCN(S(=O)(=O)c2ccc(-n3cnnn3)cc2)C1 (stereo not given),inactive
8,CN1C(=O)C(CC(=O)N2CCN(C(c3ccccc3)c3ccccc3)CC2)N(C)C1=O (stereo not given),inconclusive: 4.8 nM
9,CCCC(=O)Nc1nn(C)c2nc3cc(C)ccc3cc12,active: 43 nM
10,COc1ccc2[nH]cc(CCNc3ncnc4ccc(-c5ccccc5CN(C)C)cc34)c2c1,inactive
11,CC(C)(C)NC(=O)Cn1nnc(-c2cccs2)n1,active: 66 nM
12,O=c1c(-c2cc(F)cc(F)c2)nc2cnc(N3CCNCC3)nc2n1Cc1cccs1,inconclusive: 7.8 nM
13,CCOC(=O)Cc1cc(=O)n2[nH]c(C)c(-c3ccc(OC)cc3)c2n1,inconclusive: 1.4 nM
14,Cc1cc(C)n(C(=O)c2cccc(S(=O)(=O)N3CCCC3)c2)n1,active: 11 nM
15,Cc1cc(NC(=O)CSc2nc(-c3ccccc3)cs2)no1,inconclusive: 1.6 nM
16,Cc1nc2cncnc2n(C2CC2)c1=O,inconclusive: 1.7 nM
17,CC1CCN(S(=O)(=O)c2ccc3ncn(CC(=O)N(C)Cc4ccccc4)c(=O)c3c2)CC1,inactive
18,CCN(CCCNC(=O)C1CCC(=O)N1Cc1ccc(F)cc1)c1cccc(C)c1 (stereo not given),inactive
19,CCOC(=O)NC(NC(=O)OCC)C(=O)c1ccc(F)cc1,inconclusive: 6.7 nM
20,CCOc1nc(-c2ccccc2)ccc1-c1noc(-c2ccncc2)n1,inconclusive: 3.2 nM
21,COc1ccccc1CN1CC[C@@]2(CCCN(C(=O)c3cccn3C)C2)C1,inactive
22,Cc1nc(N)c(C#N)c(-c2ccccc2)c1C,inconclusive: 6.8 nM
23,COc1cc(C(O)P(=O)(OC2CCCCC2)c2ccc(N(C)C)cc2)cc(OC)c1OC (stereo not given),inconclusive: 1.1 nM

# Gathered by group: the entries above with an NH in an aromatic ring (12)
row,SMILES,max dye-equivalent concentration
3,O=C(Nc1c(C(=O)O)[nH]c2ccccc12)NC1CCCCC1,inconclusive: 8.4 nM
10,COc1ccc2cc(CN(Cc3ccco3)Cc3nnnn3C3CCCCC3)c(=O)[nH]c2c1,inactive
11,O=C(c1ccco1)N(Cc1cc2ccccc2[nH]c1=O)C1CCCCC1,inconclusive: 9.1 nM
17,Cc1cc2cc(CN(CCCN3CCOCC3)C(=O)NC3CCCCC3)c(=O)[nH]c2cc1C,inconclusive: 3.6 nM
18,Cc1c(NS(=O)(=O)c2ccc3[nH]c(=O)[nH]c3c2)c(=O)n(-c2ccccc2)n1C,inconclusive: 9.5 nM
1,COCCn1c(=O)[nH]c2cc(C(=O)NCCN3CCN(c4ccccc4F)CC3)ccc2c1=O,active: 25 nM
3,COC(=O)Nc1nc2ccc(Sc3ccccc3)cc2[nH]1,inconclusive: 8.1 nM
20,COc1ccc(C(CNC(=O)c2cc(=O)[nH]c3ccccc23)N2CCCC2)cc1 (stereo not given),active: 16 nM
22,CCC(Sc1nc2n[nH]c(C)c2c(=N)n1-c1ccc(C)c(Cl)c1)C(=O)N1CCOCC1 (stereo not given),inactive
23,CCc1ccc2[nH]c(=O)c(CN(CCN(CC)CC)C(=O)NC3CCCCC3)cc2c1,inconclusive: 6 nM
10,COc1ccc2[nH]cc(CCNc3ncnc4ccc(-c5ccccc5CN(C)C)cc34)c2c1,inactive
13,CCOC(=O)Cc1cc(=O)n2[nH]c(C)c(-c3ccc(OC)cc3)c2n1,inconclusive: 1.4 nM

# Continued:

row,SMILES,max dye-equivalent concentration
1,Cc1nnc2n(-c3ccccc3)c(=O)c3c4c(sc3n12)COC(C(C)C)C4 (stereo not given),inconclusive: 4.3 nM
2,COc1cc(-c2cc(C(=O)N3CCN(c4ccccn4)CC3)c3ccccc3n2)cc(OC)c1OC,inconclusive: 1.4 nM
3,CN(C)c1oc(-c2ccc(OCc3ccccc3)cc2)nc1C#N,active: 33 nM
4,N#Cc1nc(-c2cccs2)oc1NCCCN1CCOCC1,active: 4100 nM
5,CC(OC(=O)c1cccs1)C(=O)NCc1ccc2c(c1)OCO2 (stereo not given),inactive
6,COc1ccccc1-c1cc(C(=O)NCc2ccc(F)cc2)no1,active: 12 nM
7,Cc1cccc(OCC(=O)Nc2ccccc2N2CCCCC2)c1,inconclusive: 1.2 nM
8,CCOC(=O)c1[nH]c(C)c(/C(O)=C2\C(=O)C(=O)N(CCN(C)C)C2c2cccc(OC)c2OC)c1C (stereo not given),inconclusive: 1.6 nM
9,CCOC(=O)C(NCc1ccccc1OC)(NC(C)=O)C(F)(F)F (stereo not given),inconclusive: 1.6 nM
10,COC(=O)c1cc(Br)c(=O)n(CCN(C(C)C)C(C)C)c1,inconclusive: 1.1 nM
11,Cc1[nH]nc2c1C(c1ccccc1)C1=C(CC(C)(C)CC1=O)N2 (stereo not given),active: 150 nM
12,Cc1ccc2[nH]c3c(c2c1)CN(C(=O)CN1CCN(c2cccc(C)c2C)CC1)CC3,inactive
13,Cc1nc(C)c(C(=O)C2=C(O)C(=O)N(CCCn3ccnc3)C2c2ccc(Cl)cc2)s1 (stereo not given),inconclusive: 1.5 nM
14,CN(C)c1ccc(-c2cncnc2Nc2ccc(F)cc2)cc1,inactive
15,O=C(Nc1cnc2sc3c(n2c1=O)CCCC3)c1ccc(F)cc1,active: 180 nM
16,CN(C)c1ccccc1C(=O)c1ccccc1N(C)C,inconclusive: 1.7 nM
17,Cc1ccc(N2CN=c3s/c(=C\c4cccnc4)c(=O)n3C2)cc1,inconclusive: 3.8 nM
18,COC1=C(OC)c2ccccc2C(C(=O)O)N/C1=C(/C)Nc1ccncc1 (stereo not given),inactive
19,O=C(O)[C@@H]1[C@@H](C(=O)NCc2ccncc2)[C@@H]2C=C[C@@H]1O2,inconclusive: 1.5 nM
20,O=c1[nH]c(CN2CCCCC2)nc2c1C1(CCCC1)Cc1ccccc1-2,inconclusive: 2 nM
21,Cc1ccc(CN2CCN(C(=O)C3CCC3)CC2)cc1,inconclusive: 1.7 nM
